No constants are given. Whether binding was seen depends on the method and setting. For some of these results: In cells and extracts the contact can be indirect. Some binding calls cover weakened binding; strength is not graded here. For some of these results: Where a sequence is shown, tags or fusion partners need not be part of it.

Protein sequences, listed by entry. Tags and fused reporters are not part of them.
UniProt Q03330: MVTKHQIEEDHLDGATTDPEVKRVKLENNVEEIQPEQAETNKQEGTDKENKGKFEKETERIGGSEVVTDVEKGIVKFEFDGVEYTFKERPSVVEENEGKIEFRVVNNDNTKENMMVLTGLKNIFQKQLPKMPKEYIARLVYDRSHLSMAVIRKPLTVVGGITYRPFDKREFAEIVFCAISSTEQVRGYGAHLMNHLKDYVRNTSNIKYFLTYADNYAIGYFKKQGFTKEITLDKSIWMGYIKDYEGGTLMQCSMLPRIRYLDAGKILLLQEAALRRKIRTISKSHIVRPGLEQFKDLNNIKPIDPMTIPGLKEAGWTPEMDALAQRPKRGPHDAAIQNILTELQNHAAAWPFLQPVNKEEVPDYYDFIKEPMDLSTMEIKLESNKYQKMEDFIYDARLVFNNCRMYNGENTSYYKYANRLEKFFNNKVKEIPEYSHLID

For 3 molecules, binding results are on record in publication doi:10.1101/2024.09.12.612644.

The target in one assay is T1, Mip6-TAP (S. cerevisiae) (UniProt P38760).
T1 sequence: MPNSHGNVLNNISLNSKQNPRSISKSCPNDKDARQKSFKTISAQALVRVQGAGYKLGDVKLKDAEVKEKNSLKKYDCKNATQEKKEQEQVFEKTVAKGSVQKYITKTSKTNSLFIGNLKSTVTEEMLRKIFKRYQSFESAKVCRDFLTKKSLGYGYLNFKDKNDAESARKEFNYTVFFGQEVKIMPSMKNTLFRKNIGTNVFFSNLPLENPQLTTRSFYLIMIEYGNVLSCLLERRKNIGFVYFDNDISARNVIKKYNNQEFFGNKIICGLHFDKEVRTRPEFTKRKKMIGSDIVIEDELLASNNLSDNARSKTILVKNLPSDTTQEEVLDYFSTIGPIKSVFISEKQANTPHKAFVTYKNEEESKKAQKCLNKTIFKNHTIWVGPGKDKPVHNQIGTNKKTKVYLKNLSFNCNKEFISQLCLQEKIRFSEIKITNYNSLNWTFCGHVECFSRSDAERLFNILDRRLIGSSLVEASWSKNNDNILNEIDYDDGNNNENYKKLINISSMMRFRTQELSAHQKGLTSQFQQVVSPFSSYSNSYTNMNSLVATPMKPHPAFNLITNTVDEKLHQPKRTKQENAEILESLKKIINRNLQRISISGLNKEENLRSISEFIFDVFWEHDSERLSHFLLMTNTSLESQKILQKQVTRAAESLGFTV
Put plainly: tandem affinity purification.

For a further assay, the target named is T2, Mip6-GFP (S. cerevisiae) (UniProt P38760).
T2 sequence: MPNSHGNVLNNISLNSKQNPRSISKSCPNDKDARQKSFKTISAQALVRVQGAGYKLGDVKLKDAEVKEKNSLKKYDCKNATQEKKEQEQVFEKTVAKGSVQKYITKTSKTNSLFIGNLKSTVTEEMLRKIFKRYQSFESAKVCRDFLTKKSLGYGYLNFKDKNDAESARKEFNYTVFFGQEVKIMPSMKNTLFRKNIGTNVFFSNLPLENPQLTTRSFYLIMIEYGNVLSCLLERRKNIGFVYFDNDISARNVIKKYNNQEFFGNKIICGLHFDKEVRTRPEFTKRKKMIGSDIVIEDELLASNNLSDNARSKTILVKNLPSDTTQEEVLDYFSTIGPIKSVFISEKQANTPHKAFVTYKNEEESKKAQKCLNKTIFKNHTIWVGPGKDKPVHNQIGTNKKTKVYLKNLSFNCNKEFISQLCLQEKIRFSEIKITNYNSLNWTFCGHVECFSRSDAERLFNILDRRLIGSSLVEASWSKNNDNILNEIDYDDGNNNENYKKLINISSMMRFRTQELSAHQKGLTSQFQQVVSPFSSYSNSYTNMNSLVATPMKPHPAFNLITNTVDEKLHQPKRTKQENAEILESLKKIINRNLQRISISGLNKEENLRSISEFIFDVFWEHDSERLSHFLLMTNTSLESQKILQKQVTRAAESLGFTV
Put plainly: co-IP.

For assay [1], the target named is T3, Mip6W442A-GFP (S. cerevisiae) (UniProt P38760).
T3 sequence: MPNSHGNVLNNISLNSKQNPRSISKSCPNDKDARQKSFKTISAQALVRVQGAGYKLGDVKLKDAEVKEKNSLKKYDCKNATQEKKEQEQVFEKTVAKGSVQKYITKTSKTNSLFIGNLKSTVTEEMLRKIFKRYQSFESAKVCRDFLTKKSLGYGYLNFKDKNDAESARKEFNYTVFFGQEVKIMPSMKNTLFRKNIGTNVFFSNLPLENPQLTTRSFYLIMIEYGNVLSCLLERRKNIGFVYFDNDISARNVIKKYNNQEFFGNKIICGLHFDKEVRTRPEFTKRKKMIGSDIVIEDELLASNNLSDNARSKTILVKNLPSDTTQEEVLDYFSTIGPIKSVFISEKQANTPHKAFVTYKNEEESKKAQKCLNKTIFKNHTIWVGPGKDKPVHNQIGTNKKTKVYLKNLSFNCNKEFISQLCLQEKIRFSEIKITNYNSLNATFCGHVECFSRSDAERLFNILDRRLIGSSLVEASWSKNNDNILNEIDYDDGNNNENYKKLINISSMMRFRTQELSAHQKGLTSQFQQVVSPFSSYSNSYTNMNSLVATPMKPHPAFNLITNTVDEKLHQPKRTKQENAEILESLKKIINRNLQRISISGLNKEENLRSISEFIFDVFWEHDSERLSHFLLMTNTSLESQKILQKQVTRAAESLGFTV
Put plainly: co-IP.

Turning to “Gcn5 (from UniProt Q03330 1-439) (enzyme)”, the binding entry in the assay with Mip6-TAP (S. cerevisiae) is “binds”.

B1: Rpd3-TAP (enzyme, UniProt P32561 1-433)
chain: MVYEATPFDPITVKPSDKRRVAYFYDADVGNYAYGAGHPMKPHRIRMAHSLIMNYGLYKKMEIYRAKPATKQEMCQFHTDEYIDFLSRVTPDNLEMFKRESVKFNVGDDCPVFDGLYEYCSISGGGSMEGAARLNRGKCDVAVNYAGGLHHAKKSEASGFCYLNDIVLGIIELLRYHPRVLYIDIDVHHGDGVEEAFYTTDRVMTCSFHKYGEFFPGTGELRDIGVGAGKNYAVNVPLRDGIDDATYRSVFEPVIKKIMEWYQPSAVVLQCGGDSLSGDRLGCFNLSMEGHANCVNYVKSFGIPMMVVGGGGYTMRNVARTWCFETGLLNNVVLDKDLPYNEYYEYYGPDYKLSVRPSNMFNVNTPEYLDKVMTNIFANLENTKYAPSVQLNHTPRDAEDLGDVEEDSAEAKDTKGGSQYARDLHVEHDNEFY
Regarding B1, the binding entry (with Mip6-GFP (S. cerevisiae); in assay [1]) was “binds” in each case.

B2: Rpd3 (enzyme, UniProt P32561 1-433)
chain: MVYEATPFDPITVKPSDKRRVAYFYDADVGNYAYGAGHPMKPHRIRMAHSLIMNYGLYKKMEIYRAKPATKQEMCQFHTDEYIDFLSRVTPDNLEMFKRESVKFNVGDDCPVFDGLYEYCSISGGGSMEGAARLNRGKCDVAVNYAGGLHHAKKSEASGFCYLNDIVLGIIELLRYHPRVLYIDIDVHHGDGVEEAFYTTDRVMTCSFHKYGEFFPGTGELRDIGVGAGKNYAVNVPLRDGIDDATYRSVFEPVIKKIMEWYQPSAVVLQCGGDSLSGDRLGCFNLSMEGHANCVNYVKSFGIPMMVVGGGGYTMRNVARTWCFETGLLNNVVLDKDLPYNEYYEYYGPDYKLSVRPSNMFNVNTPEYLDKVMTNIFANLENTKYAPSVQLNHTPRDAEDLGDVEEDSAEAKDTKGGSQYARDLHVEHDNEFY
Turning to B2, in the assay with Mip6-TAP (S. cerevisiae), the binding result was “binds”.
